# From the supplement of paper PMC8728848
# The other results are listed elsewhere or left out.
# Assays:
# Assay in all cases: glycan array binding signal (z-score within array); higher = stronger binding
# Settings in all cases: glycan notation: IUPAC condensed, linker removed
# [1] = biological target: Gal(b1-3)GlcNAc(b1-6)GalNAc
# How it was run: (§1)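 The Consortium for Functional Glycomics database supplied 3228 glycan arrays, of which those lacking an available protein sequence were dropped. The binding signal, a within-array Z-score, was averaged across arrays of the same protein sequence and across linkers. Negative scores can be read as non-binding.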
# [2] = biological target: Gal(b1-3)GlcNAc(b1-6)[Gal(b1-3)]GalNAc
# How it was run: as §1
# Gal(b1-3)GlcNAc6S = biological target: Gal(b1-3)GlcNAc6S
# How it was run: as §1
# [3] = biological target: Gal(b1-3)[Fuc(a1-4)]GlcNAc
# How it was run: as §1
# [4] = biological target: Gal(b1-3)[Fuc(a1-4)]GlcNAc(b1-2)Man
# How it was run: as §1
# [5] = biological target: Gal(b1-3)[Fuc(a1-4)]GlcNAc(b1-2)Man(a1-3)[Gal(b1-3)[Fuc(a1-4)]GlcNAc(b1-2)Man(a1-6)]Man(b1-4)GlcNAc(b1-4)[Fuc(a1-6)]GlcNAc
# How it was run: as §1
# [6] = biological target: Gal(b1-3)[Fuc(a1-4)]GlcNAc(b1-3)Gal(b1-3)[Fuc(a1-4)]GlcNAc
# How it was run: as §1
# [7] = biological target: Gal(b1-3)[Fuc(a1-4)]GlcNAc(b1-3)Gal(b1-4)[Fuc(a1-3)]GlcNAc
# How it was run: as §1
# [8] = biological target: Gal(b1-3)[Fuc(a1-4)]GlcNAc(b1-6)GalNAc
# How it was run: as §1
# [9] = biological target: Gal(b1-3)[GlcNAc(b1-6)]GalNAc
# How it was run: as §1
# [10] = biological target: Gal(b1-3)[Neu5Ac(a2-6)]GalNAc
# How it was run: as §1
# [11] = biological target: Gal(b1-3)[Neu5Ac(a2-6)]GlcNAc(b1-4)Gal(b1-4)Glc
# How it was run: as §1
# [12] = biological target: Gal(b1-3)[Neu5Ac(b2-6)]GalNAc
# How it was run: as §1
# Gal(b1-4)Gal = biological target: Gal(b1-4)Gal
# How it was run: as §1
# [13] = biological target: Gal(b1-4)GalNAc(a1-3)[Fuc(a1-2)]Gal(b1-4)GlcNAc
# How it was run: as §1
# [14] = biological target: Gal(b1-4)GalNAc(b1-3)[Fuc(a1-2)]Gal(b1-4)GlcNAc
# How it was run: as §1
# Gal(b1-4)Glc = biological target: Gal(b1-4)Glc
# How it was run: as §1
# Gal(b1-4)Glc6S = biological target: Gal(b1-4)Glc6S
# How it was run: as §1
# Gal(b1-4)GlcNAc = biological target: Gal(b1-4)GlcNAc
# How it was run: as §1
# [15] = biological target: Gal(b1-4)GlcNAc(a1-6)Gal(b1-4)GlcNAc
# How it was run: as §1
# Gal(b1-4)GlcNAc(b1-2)Man = biological target: Gal(b1-4)GlcNAc(b1-2)Man
# How it was run: as §1
# [16] = biological target: Gal(b1-4)GlcNAc(b1-2)Man(a1-3)Man(b1-4)GlcNAc(b1-4)GlcNAc
# How it was run: as §1
# [17] = biological target: Gal(b1-4)GlcNAc(b1-2)Man(a1-3)[Gal(b1-4)GlcNAc(b1-2)Man(a1-6)]Man(b1-4)GlcNAc(b1-4)GlcNAc
# How it was run: as §1
# [18] = biological target: Gal(b1-4)GlcNAc(b1-2)Man(a1-3)[Gal(b1-4)GlcNAc(b1-2)Man(a1-6)]Man(b1-4)GlcNAc(b1-4)[Fuc(a1-6)]GlcNAc
# How it was run: as §1
# [19] = biological target: Gal(b1-4)GlcNAc(b1-2)Man(a1-3)[Gal(b1-4)GlcNAc(b1-2)Man(a1-6)][Gal(b1-4)GlcNAc(b1-4)]Man(b1-4)GlcNAc(b1-4)[Fuc(a1-6)]GlcNAc
# How it was run: as §1
# [20] = biological target: Gal(b1-4)GlcNAc(b1-2)Man(a1-3)[Gal(b1-4)GlcNAc(b1-2)Man(a1-6)][GlcNAc(b1-4)]Man(b1-4)GlcNAc(b1-4)[Fuc(a1-6)]GlcNAc
# How it was run: as §1
# [21] = biological target: Gal(b1-4)GlcNAc(b1-2)Man(a1-3)[GlcNAc(b1-2)Man(a1-6)]Man(b1-4)GlcNAc(b1-4)GlcNAc
# How it was run: as §1
# [22] = biological target: Gal(b1-4)GlcNAc(b1-2)Man(a1-3)[GlcNAc(b1-4)][Gal(b1-4)GlcNAc(b1-2)Man(a1-6)]Man(b1-4)GlcNAc(b1-4)GlcNAc
# How it was run: as §1
# [23] = biological target: Gal(b1-4)GlcNAc(b1-2)Man(a1-3)[Man(a1-6)]Man(b1-4)GlcNAc(b1-4)GlcNAc
# How it was run: as §1
# [24] = biological target: Gal(b1-4)GlcNAc(b1-2)Man(a1-6)Man(b1-4)GlcNAc(b1-4)GlcNAc
# How it was run: as §1
# [25] = biological target: Gal(b1-4)GlcNAc(b1-2)Man(a1-6)[GlcNAc(b1-2)Man(a1-3)]Man(b1-4)GlcNAc(b1-4)GlcNAc
# How it was run: as §1
# [26] = biological target: Gal(b1-4)GlcNAc(b1-2)Man(a1-6)[Man(a1-3)]Man(b1-4)GlcNAc(b1-4)GlcNAc
# How it was run: as §1
# [27] = biological target: Gal(b1-4)GlcNAc(b1-2)[Gal(b1-4)GlcNAc(b1-4)]Man(a1-3)[Gal(b1-4)GlcNAc(b1-2)Man(a1-6)]Man(b1-4)GlcNAc(b1-4)GlcNAc
# How it was run: as §1
# [28] = biological target: Gal(b1-4)GlcNAc(b1-2)[Gal(b1-4)GlcNAc(b1-4)]Man(a1-3)[Gal(b1-4)GlcNAc(b1-2)[Gal(b1-4)GlcNAc(b1-6)]Man(a1-6)]Man(b1-4)GlcNAc(b1-4)GlcNAc
# How it was run: as §1
# [29] = biological target: Gal(b1-4)GlcNAc(b1-2)[Gal(b1-4)GlcNAc(b1-4)]Man(a1-3)[GlcNAc(b1-4)][Gal(b1-4)GlcNAc(b1-2)Man(a1-6)]Man(b1-4)GlcNAc(b1-4)GlcNAc
# How it was run: as §1
# [30] = biological target: Gal(b1-4)GlcNAc(b1-2)[Gal(b1-4)GlcNAc(b1-4)]Man(a1-3)[GlcNAc(b1-4)][Gal(b1-4)GlcNAc(b1-2)[Gal(b1-4)GlcNAc(b1-6)]Man(a1-6)]Man(b1-4)GlcNAc(b1-4)GlcNAc
# How it was run: as §1
# [31] = biological target: Gal(b1-4)GlcNAc(b1-2)[Gal(b1-4)GlcNAc(b1-6)]Man(a1-6)[Gal(b1-4)GlcNAc(b1-2)Man(a1-3)]Man(b1-4)GlcNAc(b1-4)GlcNAc
# How it was run: as §1
binder,measurement,setting,value
Epa20 (Candida glabrata) (protein) MGSSHHHHHHSSGLVPRGSHMASSNIPNNYPLGCSNKYSGHLPGLKMELYSYNYVNPRHPDPQNPGKLDQLYDPNLLGTYECFDSSYKDINYPRVGYKSKTLIGRSDGVSGILNFNFVPPWGCMPQKGQLPPAYNFKSNITLSNFTMILFGYFKPKISGNHIFSLHGDDLIYLNFGAGNAFDCCRQESSADNFGNYQAFSLWGINWEKKTLTVYLDMNTYYPIRIFYNNRDYQAIFNFSFKTEFDSSPVIDFQDYFFFLRDIDGGCPGEV,glycan array binding signal (z-score),[1],-0.413
same,glycan array binding signal (z-score),[2],-0.353
same,glycan array binding signal (z-score),Gal(b1-3)GlcNAc6S,-0.347
same,glycan array binding signal (z-score),[3],-0.718
same,glycan array binding signal (z-score),[4],-0.036
same,glycan array binding signal (z-score),[5],0.061
same,glycan array binding signal (z-score),[6],-0.28
same,glycan array binding signal (z-score),[7],-0.763
same,glycan array binding signal (z-score),[8],0.811
same,glycan array binding signal (z-score),[9],-0.421
same,glycan array binding signal (z-score),[10],-0.924
same,glycan array binding signal (z-score),[11],0.047
same,glycan array binding signal (z-score),[12],-0.415
same,glycan array binding signal (z-score),Gal(b1-4)Gal,-0.488
same,glycan array binding signal (z-score),[13],-0.784
same,glycan array binding signal (z-score),[14],-0.549
same,glycan array binding signal (z-score),Gal(b1-4)Glc,-0.35
same,glycan array binding signal (z-score),Gal(b1-4)Glc6S,0.122
same,glycan array binding signal (z-score),Gal(b1-4)GlcNAc,-0.415
same,glycan array binding signal (z-score),[15],-0.249
same,glycan array binding signal (z-score),Gal(b1-4)GlcNAc(b1-2)Man,-0.114
same,glycan array binding signal (z-score),[16],-0.254
same,glycan array binding signal (z-score),[17],-0.534
same,glycan array binding signal (z-score),[18],0.292
same,glycan array binding signal (z-score),[19],-0.489
same,glycan array binding signal (z-score),[20],-0.546
same,glycan array binding signal (z-score),[21],-0.442
same,glycan array binding signal (z-score),[22],-0.56
same,glycan array binding signal (z-score),[23],0.168
same,glycan array binding signal (z-score),[24],-0.205
same,glycan array binding signal (z-score),[25],0.14
same,glycan array binding signal (z-score),[26],-0.359
same,glycan array binding signal (z-score),[27],-0.453
same,glycan array binding signal (z-score),[28],-0.504
same,glycan array binding signal (z-score),[29],0.325
same,glycan array binding signal (z-score),[30],-0.404
same,glycan array binding signal (z-score),[31],-0.662

# In another format: results already given
binder	measurement	setting	value
Epa20 (Candida glabrata) (protein) MGSSHHHHHHSSGLVPRGSHMASSNIPNNYPLGCSNKYSGHLPGLKMELYSYNYVNPRHPDPQNPGKLDQLYDPNLLGTYECFDSSYKDINYPRVGYKSKTLIGRSDGVSGILNFNFVPPWGCMPQKGQLPPAYNFKSNITLSNFTMILFGYFKPKISGNHIFSLHGDDLIYLNFGAGNAFDCCRQESSADNFGNYQAFSLWGINWEKKTLTVYLDMNTYYPIRIFYNNRDYQAIFNFSFKTEFDSSPVIDFQDYFFFLRDIDGGCPGEV	glycan array binding signal (z-score)	[24]	-0.205
same	glycan array binding signal (z-score)	[25]	0.14
same	glycan array binding signal (z-score)	[26]	-0.359
